In patent publication US20110182926A1, “[…]” (priority 2008, published 2011):
No constants are given. Whether binding was seen depends on the method and setting. Binding calls can cover weak binding; strength is not graded here.

B1: HER2 position 657, 10-mer, w.t. (…) (peptide)
peptide: AVVGILLVVV
B2: HER2 position 661, 10-mer, w.t. (…) (peptide)
peptide: ILLVVVLGVV
B3: HER2 position 444, 10-mer, w.t. (…) (peptide)
peptide: TLQGLGISWL
B4: HER2 position 484, 10-mer, w.t. (…) (peptide)
peptide: QLFRNPHQAL

target: HLA-A*0201 (iTopia Epitope Discovery System) (human); assay: assay not named there (iTopia in Example 14); details: remark: other sources report otherwise

Row | binding | Binder
1 | binds | B1
2 | binds | B2
3 | binds | B3
4 | binds | B4
